Out of some 360,000 compounds screened, about 10,000 (2.8%) were called active. Inconclusive results, whose numbers are uncertain, are shown with a selection of clear calls. Calls come from the whole dose curve; as a rule, active = well fitted inhibition curve with a large enough effect; inconclusive = small, poorly fitted or top-dose-only effect; inactive = flat fitted curve, though single readings scatter. Potencies beside an inconclusive call are fits to weak or partial responses and may not hold up.
Target: Serine/threonine-protein kinase PLK1 (Homo sapiens) (UniProt P53350)
Experiment: qHTS for Inhibitors of PLK1-PDB (polo-like kinase 1 - polo-box domain): Primary Screen; note: nearly all actives have a fitted effect of over 65% in size; for max response, negative = inhibition: series mostly up to about 57 µM
Conditions: Plk1 PBD binding of FITC phosphopeptide, fluorescence polarization
% is set by controls: 0 for no effect and ±100 for the full control effect; potency is the fitted concentration of half-maximal effect.

The chains behind the UniProt entries cited, without tags or fusion partners.
UniProt P53350, whole entry, looked up: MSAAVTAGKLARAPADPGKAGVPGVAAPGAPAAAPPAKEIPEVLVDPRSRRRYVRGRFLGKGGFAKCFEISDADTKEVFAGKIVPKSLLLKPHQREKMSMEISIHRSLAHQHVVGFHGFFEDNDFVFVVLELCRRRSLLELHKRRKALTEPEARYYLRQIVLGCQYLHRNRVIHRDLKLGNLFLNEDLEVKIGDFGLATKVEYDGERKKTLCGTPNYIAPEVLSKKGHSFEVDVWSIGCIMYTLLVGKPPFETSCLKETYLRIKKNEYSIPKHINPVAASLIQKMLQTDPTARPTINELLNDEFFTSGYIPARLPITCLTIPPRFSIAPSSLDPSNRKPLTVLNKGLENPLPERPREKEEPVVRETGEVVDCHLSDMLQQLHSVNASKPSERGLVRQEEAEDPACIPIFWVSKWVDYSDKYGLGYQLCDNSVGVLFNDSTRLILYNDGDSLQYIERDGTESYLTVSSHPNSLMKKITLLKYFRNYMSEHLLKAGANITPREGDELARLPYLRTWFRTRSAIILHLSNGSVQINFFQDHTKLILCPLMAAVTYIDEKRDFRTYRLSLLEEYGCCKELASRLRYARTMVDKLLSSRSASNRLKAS

Compound | Potency | max response, negative = inhibition
O=c1cc(-c2ccccc2)nc(Sc2ccc([N+](=O)[O-])cc2[N+](=O)[O-])[nH]1 | inconclusive: 21.2 µM [inhibitor, partial curve] | 
O=C(Nc1ccc(F)cc1)C(c1cccc(F)c1)N1CCN(c2cccc(C(F)(F)F)n2)CC1 (stereo unspecified) |  | inactive: -17.2%
Cc1ccc2c(COC(=O)CNC(=O)c3ccco3)cc(=O)oc2c1C |  | inactive: -14.4%
CC(=O)Oc1cc(C(=O)OCC(=O)N2CCc3ccccc3C2)cc(OC(C)=O)c1OC(C)=O | inconclusive: 29.9 µM [inhibitor, partial curve] | 
CCC1NC(=O)c2cc3ccccc3cc2-n2c1nc1ccc(OC)cc1c2=O (stereo unspecified) |  | inactive: 0.947%
Cc1nc2ccc(NS(=O)(=O)c3ccccc3Cl)cc2s1 | inconclusive: 23.8 µM [inhibitor, partial curve] | 
COc1cc(NC(=S)N2CCCC(C)C2)c(OC)cc1Cl (stereo unspecified) | active: 18.9 µM | 
Cc1cccc(NC(=O)CNC(=O)c2cccc(-n3cccc3)c2)c1C | inconclusive: 29.9 µM [inhibitor, partial curve] | 
COc1ccc(Cc2nnc3n2N=C(c2cc4ccccc4o2)CS3)cc1OC | inconclusive: 21.2 µM [inhibitor, partial curve] | 
CC(=O)N1CCc2[nH]c3ccc(C)cc3c2C1 | inconclusive: 37.7 µM [inhibitor, single point] | 
CC(C)Oc1ccc(C(=O)/C=C2/C(=O)Nc3ccccc32)cc1 | inconclusive: 8.44 µM [inhibitor, partial curve] | 
Cc1cccc(S(=O)(=O)Nc2nc3ccccc3nc2NCc2ccco2)c1 | inconclusive: 29.9 µM [inhibitor, single point] | 
COCC(C)NC(=O)c1ccc(N(C)C)cc1 (stereo unspecified) |  | inactive: 0.147%
CCC(Sc1nc(C)cc(=O)[nH]1)C(=O)Nc1nc(-c2ccccc2)cs1 (stereo unspecified) | inconclusive: 23.8 µM [inhibitor, single point] | 
CCOC(=O)c1cc(NC(=O)c2cc(C)on2)cc(C(=O)OCC)c1 |  | inactive: 3.69%
O=C(Nc1ccc(Cl)cn1)c1ccccc1[N+](=O)[O-] | inconclusive: 26.7 µM [inhibitor, single point] | 
CCOc1ccc(/C=N/NC(=O)c2c(C)n(C)c3ccc(OC)cc23)cc1 |  | inactive: 1.21%
Cc1ccc(C2c3[nH]c4ccccc4c3C[C@H]3C(=O)N(c4ccccc4C(=O)N4CCC[C@H]4C(=O)O)C(=O)N23)cc1 (stereo partly specified) | inconclusive: 75.2 µM [inhibitor, single point] | 
CC1CCCCN1C(=O)COC(=O)CSc1ccc(C(N)=O)cc1[N+](=O)[O-] (stereo unspecified) |  | inactive: -11.4%
Cc1nn(CCc2nn[nH]n2)c2nc(-c3ccc(Br)cc3)cc(C(F)(F)F)c12 | inconclusive: 26.7 µM [inhibitor, single point] | 
O=C(c1cnn(C(=O)c2ccco2)c1)c1cc(F)ccc1O | inconclusive: 23.8 µM [inhibitor, partial curve] | 
COc1ccc(NC2c3ncccc3C(=O)N2Cc2cccs2)cc1 (stereo unspecified) |  | inactive: -28.6%
CCOc1cc(/C=C2\CCCc3c2nc2ccccc2c3C(=O)O)ccc1OC | active: 2.99 µM | 

Compound | Potency | max response, negative = inhibition
Cc1nc2ccc(NC(=O)c3ccc(Cl)c([N+](=O)[O-])c3)cc2s1 |  | inactive: -3.22%
O=C(Nc1cnc2ccccc2c1)N1CCOCC1 | active: 26.7 µM | 
N#C/C(=N\Nc1cccc(C(F)(F)F)c1)C(=O)c1csc(-c2cccnc2)n1 | inconclusive: 21.2 µM [inhibitor, single point] | 
O=C(O)c1ccc(N/N=C/c2ccc(OC(=O)c3ccccc3Cl)cc2)cc1 | active: 29.9 µM | 
CCn1c(/C=C/c2c[nH]c3ccccc23)nc2ccccc2c1=O | active: 21.2 µM | 
O=C(NCCCSc1ccccc1)c1cc(Cl)ccc1O |  | inactive: -10.2%
CC1=NN(/C(=N\c2nnc(C)s2)Nc2ccccc2)[C@H](c2cccc3ccccc23)S1 |  | inconclusive: -5.75% [inhibitor]
C=CCOc1ccc(C2C(C(=O)c3cccs3)=C(O)C(=O)N2c2nnc(C)s2)cc1 (stereo unspecified) | inconclusive: 6.7 µM [inhibitor, partial curve] | 
COc1ccccc1-n1c(CNC(=O)c2ccco2)nnc1SCC(=O)Nc1cc(C)ccc1C | active: 2.99 µM | 
O=S(=O)(c1ccc2c(c1)CCCN2)N1CCCC2CCCCC21 (stereo unspecified) | inconclusive: 26.7 µM [inhibitor, partial curve] | 
COC(=O)CCC(=O)OC1(C)C(=O)C2=CN(c3ccccc3)C(c3ccc(OC)cc3)=CC2=C(Br)C1=O (stereo unspecified) | inconclusive: 13.4 µM [inhibitor, partial curve] | 
C[C@H](CO)N1C[C@H](C)[C@@H](CN(C)S(=O)(=O)c2ccc(F)cc2)Oc2c(NC(=O)Nc3ccc4c(c3)OCO4)cccc2C1=O |  | inactive: -15.9%
CC(C)Cc1ccc(-c2cc3nc(NCCOc4ccccc4)ccn3n2)cc1 |  | inactive: 6.68%
COc1ccccc1CNC(=O)CCNS(=O)(=O)c1ccc2[nH]c(=O)oc2c1 | active: 33.6 µM | 
COc1ccccc1NC(=O)c1ccccc1Nc1ccccc1 |  | inactive: -0.158%
COc1cc(C)cc(C(=O)C=Cc2ccccc2)c1O | inconclusive: 11.9 µM [inhibitor, partial curve] | 
Nc1cccc2[nH]c(C(F)(F)F)nc12 | inconclusive: 37.7 µM [inhibitor, single point] | 
CNc1ccc(Cl)cc1S(=O)(=O)c1ccccc1[N+](=O)[O-] |  | inactive: -15.1%
CC(C)CCN1CCN(Cc2ccc(C(F)(F)F)cc2)CC1CCO (stereo unspecified) |  | inactive: 4.35%
COc1ccc(NC(=S)NC(NC(=O)C(C)C)C(Cl)(Cl)Cl)c([N+](=O)[O-])c1 (stereo unspecified) | active: 26.7 µM | 
COc1cc(/C=C/c2sc3ccccc3[n+]2CCCS(=O)(=O)[O-])ccc1O |  | inactive: 36.5%
CN(C(=S)Nc1ccc(SC(F)F)cc1)c1ccc(O)cc1 | inconclusive: 18.9 µM [inhibitor, partial curve] | 
CC1(C)CC(=O)C2=C(C1)OC(N)=C(C#N)C2c1cc2c(cc1[N+](=O)[O-])OCO2 (stereo unspecified) | inconclusive: 10.6 µM [inhibitor, partial curve] | 

Arranged by molecular weight (rising): part of the list above.
Compound | Potency | max response, negative = inhibition
Nc1cccc2[nH]c(C(F)(F)F)nc12 | inconclusive: 37.7 µM [inhibitor, single point] | 
COc1cc(C)cc(C(=O)C=Cc2ccccc2)c1O | inconclusive: 11.9 µM [inhibitor, partial curve] | 
CCn1c(/C=C/c2c[nH]c3ccccc23)nc2ccccc2c1=O | active: 21.2 µM | 
O=C(NCCCSc1ccccc1)c1cc(Cl)ccc1O |  | inactive: -10.2%
CNc1ccc(Cl)cc1S(=O)(=O)c1ccccc1[N+](=O)[O-] |  | inactive: -15.1%
O=S(=O)(c1ccc2c(c1)CCCN2)N1CCCC2CCCCC21 (stereo unspecified) | inconclusive: 26.7 µM [inhibitor, partial curve] | 
CN(C(=S)Nc1ccc(SC(F)F)cc1)c1ccc(O)cc1 | inconclusive: 18.9 µM [inhibitor, partial curve] | 
Cc1nc2ccc(NC(=O)c3ccc(Cl)c([N+](=O)[O-])c3)cc2s1 |  | inactive: -3.22%
N#C/C(=N\Nc1cccc(C(F)(F)F)c1)C(=O)c1csc(-c2cccnc2)n1 | inconclusive: 21.2 µM [inhibitor, single point] | 
CC1=NN(/C(=N\c2nnc(C)s2)Nc2ccccc2)[C@H](c2cccc3ccccc23)S1 |  | inconclusive: -5.75% [inhibitor]
COc1ccccc1-n1c(CNC(=O)c2ccco2)nnc1SCC(=O)Nc1cc(C)ccc1C | active: 2.99 µM | 
COC(=O)CCC(=O)OC1(C)C(=O)C2=CN(c3ccccc3)C(c3ccc(OC)cc3)=CC2=C(Br)C1=O (stereo unspecified) | inconclusive: 13.4 µM [inhibitor, partial curve] | 
